Assay results reported in PMC9998969.

Amino acid sequences for entries named in this document (tags omitted). A change or cut given only in a name is not applied to a line headed by its entry. Residues count along the entry.
UniProt Q9BSJ8: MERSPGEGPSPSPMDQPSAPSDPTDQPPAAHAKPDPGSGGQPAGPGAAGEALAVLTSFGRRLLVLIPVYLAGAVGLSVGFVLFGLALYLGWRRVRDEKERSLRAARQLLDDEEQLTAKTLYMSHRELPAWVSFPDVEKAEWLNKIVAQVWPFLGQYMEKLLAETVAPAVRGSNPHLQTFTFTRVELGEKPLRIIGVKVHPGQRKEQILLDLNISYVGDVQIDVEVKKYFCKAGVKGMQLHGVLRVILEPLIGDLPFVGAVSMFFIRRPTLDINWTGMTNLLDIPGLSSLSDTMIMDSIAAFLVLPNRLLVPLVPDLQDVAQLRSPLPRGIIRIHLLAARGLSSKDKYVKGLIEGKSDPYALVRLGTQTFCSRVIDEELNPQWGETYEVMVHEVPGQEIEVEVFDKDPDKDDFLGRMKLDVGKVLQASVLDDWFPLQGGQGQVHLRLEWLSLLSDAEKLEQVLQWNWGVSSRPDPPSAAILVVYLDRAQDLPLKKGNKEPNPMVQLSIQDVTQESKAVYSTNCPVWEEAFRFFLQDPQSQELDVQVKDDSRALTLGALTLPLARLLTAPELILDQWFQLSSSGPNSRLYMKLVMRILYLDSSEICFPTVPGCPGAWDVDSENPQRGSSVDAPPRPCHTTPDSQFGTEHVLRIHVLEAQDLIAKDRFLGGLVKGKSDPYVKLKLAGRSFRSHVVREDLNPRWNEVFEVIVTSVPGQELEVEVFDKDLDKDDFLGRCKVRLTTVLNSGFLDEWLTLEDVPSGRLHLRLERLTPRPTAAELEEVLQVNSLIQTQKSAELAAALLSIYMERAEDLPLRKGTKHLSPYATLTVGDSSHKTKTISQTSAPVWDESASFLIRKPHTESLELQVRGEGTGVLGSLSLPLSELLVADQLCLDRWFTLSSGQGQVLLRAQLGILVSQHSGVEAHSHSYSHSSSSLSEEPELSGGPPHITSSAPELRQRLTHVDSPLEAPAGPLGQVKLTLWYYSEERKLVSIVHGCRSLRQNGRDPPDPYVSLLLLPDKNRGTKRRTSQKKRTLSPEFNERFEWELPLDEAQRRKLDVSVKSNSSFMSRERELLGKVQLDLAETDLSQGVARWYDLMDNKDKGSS
UniProt Q9NZJ5, residues 30-1116: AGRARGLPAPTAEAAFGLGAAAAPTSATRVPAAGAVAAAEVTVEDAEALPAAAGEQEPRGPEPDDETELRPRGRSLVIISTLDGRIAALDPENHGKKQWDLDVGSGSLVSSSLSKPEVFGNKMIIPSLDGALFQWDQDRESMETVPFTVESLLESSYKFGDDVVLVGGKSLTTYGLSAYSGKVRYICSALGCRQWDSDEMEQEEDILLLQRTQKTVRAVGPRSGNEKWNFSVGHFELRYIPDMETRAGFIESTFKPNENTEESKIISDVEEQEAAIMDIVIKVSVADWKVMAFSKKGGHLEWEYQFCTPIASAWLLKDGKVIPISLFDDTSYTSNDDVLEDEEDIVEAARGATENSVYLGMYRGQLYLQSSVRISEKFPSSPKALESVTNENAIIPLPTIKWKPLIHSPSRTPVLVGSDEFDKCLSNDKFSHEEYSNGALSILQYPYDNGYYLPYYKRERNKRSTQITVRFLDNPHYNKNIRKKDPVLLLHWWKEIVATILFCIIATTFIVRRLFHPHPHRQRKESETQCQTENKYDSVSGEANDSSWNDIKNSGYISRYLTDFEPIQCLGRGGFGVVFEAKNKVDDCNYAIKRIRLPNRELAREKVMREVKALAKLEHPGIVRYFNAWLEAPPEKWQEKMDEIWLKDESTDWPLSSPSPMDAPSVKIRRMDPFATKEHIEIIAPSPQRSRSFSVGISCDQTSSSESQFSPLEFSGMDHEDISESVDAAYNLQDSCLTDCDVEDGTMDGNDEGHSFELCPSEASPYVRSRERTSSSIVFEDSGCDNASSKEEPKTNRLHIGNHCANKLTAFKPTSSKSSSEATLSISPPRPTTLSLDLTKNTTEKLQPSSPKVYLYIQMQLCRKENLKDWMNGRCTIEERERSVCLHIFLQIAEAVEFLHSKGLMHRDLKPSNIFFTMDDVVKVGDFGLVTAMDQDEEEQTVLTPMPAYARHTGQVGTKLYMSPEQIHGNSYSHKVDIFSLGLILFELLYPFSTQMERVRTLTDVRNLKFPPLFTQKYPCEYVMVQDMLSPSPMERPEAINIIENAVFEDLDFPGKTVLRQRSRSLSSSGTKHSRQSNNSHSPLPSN

Key:
eGFP-E-Syt1-ΔSMP [1] = biological target: eGFP-E-Syt1-ΔSMP (UniProt Q9BSJ8); experiment: co-IP; eGFP pull-down from isolated crude mitochondrial (mito crude) fractions of E-Syt1/2 DKO HeLa cells transiently transfected with eGFP or eGFP-tagged E-Syt1 constructs; blot for endogenous PERK
eGFP-E-Syt1-ΔSMP [2] = biological target: eGFP-E-Syt1-ΔSMP (UniProt Q9BSJ8); experiment: co-IP; GFP pull-down with conjugated GFP antibody beads from total lysates of transfected HEK293-T cells; lysis in 1% CHAPS, 100 mM KCl, 50 mM Tris HCl, 150 mM NaCl; 500 ug protein, overnight at 4°C; blot for myc, PERK, GFP, CNX

With “endogenous PERK (from UniProt Q9NZJ5 30-1116)” the binding (eGFP-E-Syt1-ΔSMP [1]) was “binds” and the binding (eGFP-E-Syt1-ΔSMP [2]) was “binds”.

No constants are given. Whether binding was seen depends on the method and setting. Binding seen in cells or lysates may run through a third protein. Binding can be weak; no strength is given.
